Values from PubChem BioAssay AID1259254 (NCATS, 2017).
Test: 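Genome-wide screen for genes that prevent DNA re-replication in cancer cells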 (primary screen). Cell system: human HCT116 colorectal cancer cells. Reagents: single siRNA against human genes. Duration: 3 days. Measurement: 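Imaged Hoechst DNA stain sorts each cell into a cycle phase by DNA amount; per plate, G2 fraction set to 0% for non-targeting and 100% for GMNN siRNA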. Reading the numbers: G2 robust z-score and G2 cells, % of GMNN control: higher = more G2 cells, more excess DNA replication. Call rule: 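Active siRNAs have a G2 robust z of 5 or more median absolute deviations over the median, which in these data means about 38% or higher of GMNN control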.
Here is a random part of about 59,000 reagents tested. In the full data, about 1,550 (2.6%) were called active. 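G2 share is only a proxy for re-replication; each gene was hit by three separate siRNAs, and active genes were retested.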 The numbers tell different reagents against one gene apart. Further read-outs or replicates are left out here. Not given: the amount of reagent.

For CLIP3 (GeneID 25999) #1, the values are G2 robust z-score -0.471; G2 cells, % of GMNN control -0.349; inactive.
Depletion of CLIP3 (GeneID 25999) #2 gave: G2 robust z-score 0.572; G2 cells, % of GMNN control 6.99; inactive.
Against CLIP3 (GeneID 25999) #3, the entry reads G2 robust z-score 1.53; G2 cells, % of GMNN control 13.7; inactive.
PCED1A (GeneID 64773) #1 showed G2 robust z-score 0.311; G2 cells, % of GMNN control 5.15; inactive.
PCED1A (GeneID 64773) #2 showed G2 robust z-score 0.227; G2 cells, % of GMNN control 4.56; inactive.
With knock-down of PCED1A (GeneID 64773) #3, the record shows G2 robust z-score -1.2; G2 cells, % of GMNN control -5.5; inactive.
For APOBR (GeneID 55911) #1, the entry reads G2 robust z-score -1.07; G2 cells, % of GMNN control -4.59; inactive.
APOBR (GeneID 55911) #2 scored G2 robust z-score -0.717; G2 cells, % of GMNN control -2.07; inactive.
Silencing of APOBR (GeneID 55911) #3 gave: G2 robust z-score -1.04; G2 cells, % of GMNN control -4.38; inactive.

2 of these entries, reformatted.
target	siRNA no.	G2 robust z-score	G2 cells, % of GMNN control	Outcome
CLIP3 (GeneID 25999)	1	-0.471	-0.349	inactive
CLIP3 (GeneID 25999)	2	0.572	6.99	inactive

Continued:
APBB2 (GeneID 323) #1 showed G2 robust z-score -1.12; G2 cells, % of GMNN control -4.91; inactive.
Knock-down of APBB2 (GeneID 323) #2 came out at: G2 robust z-score -1.11; G2 cells, % of GMNN control -4.82; inactive.
For APBB2 (GeneID 323) #3, the values are G2 robust z-score 1.37; G2 cells, % of GMNN control 12.6; inactive.
IGFBP5 (GeneID 3488) #1 showed G2 robust z-score -0.494; G2 cells, % of GMNN control -0.505; inactive.
Depletion of IGFBP5 (GeneID 3488) #2 resulted in: G2 robust z-score 1.55; G2 cells, % of GMNN control 13.9; inactive.
IGFBP5 (GeneID 3488) #3 scored G2 robust z-score 1; G2 cells, % of GMNN control 10; inactive.
CNN3 (GeneID 1266) #1 gave G2 robust z-score -0.158; G2 cells, % of GMNN control 1.86; inactive.
Against CNN3 (GeneID 1266) #2, the values are G2 robust z-score 6.17; G2 cells, % of GMNN control 46.3; active.
Knock-down of CNN3 (GeneID 1266) #3 came out at: G2 robust z-score -0.482; G2 cells, % of GMNN control -0.421; inactive.
